Source: paper PMC6892437
No constants are given. Whether binding was seen depends on the method and setting. Binding seen in cells or lysates may run through a third protein. Some binding calls cover weakened binding; strength is not graded here. Where a sequence is shown, tags or fusion partners need not be part of it.

The chains behind the UniProt entries cited, without tags or fusion partners.
UniProt O95858: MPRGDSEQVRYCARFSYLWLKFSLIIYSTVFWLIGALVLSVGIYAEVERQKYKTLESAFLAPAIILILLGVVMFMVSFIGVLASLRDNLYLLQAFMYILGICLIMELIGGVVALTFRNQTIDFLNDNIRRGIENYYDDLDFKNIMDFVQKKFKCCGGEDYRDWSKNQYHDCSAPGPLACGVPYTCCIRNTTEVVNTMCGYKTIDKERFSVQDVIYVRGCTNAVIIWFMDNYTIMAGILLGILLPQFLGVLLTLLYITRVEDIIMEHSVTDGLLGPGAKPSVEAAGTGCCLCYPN

T1: CD81 (human (endogenous in U2OS)) (UniProt P60033)
T1 sequence: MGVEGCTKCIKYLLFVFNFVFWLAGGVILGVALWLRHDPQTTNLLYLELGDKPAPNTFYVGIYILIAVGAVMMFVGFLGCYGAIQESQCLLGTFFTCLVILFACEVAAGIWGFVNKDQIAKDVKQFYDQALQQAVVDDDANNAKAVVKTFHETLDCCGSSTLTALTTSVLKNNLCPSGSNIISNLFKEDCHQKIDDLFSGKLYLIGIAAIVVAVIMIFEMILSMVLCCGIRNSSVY


Target: T1, CD81 (human (endogenous in U2OS))
Assay: co-IP; U2OS cells transfected or not with Tspan5 or Tspan15, lysed in 1% Brij 97 with 1 mM CaCl2 and MgCl2 (30 mM Tris pH 7.4, 150 mM NaCl); immunoprecipitation of ADAM10 or CD81, Western blot

Row | binding | Molecule
1 | no binding | untagged Tspan15 (ectopically expressed) (from UniProt O95858 1-294)
2 | binds | untagged Tspan5 (ectopically expressed) (protein, UniProt P62079 1-268) MSGKHYKGPEVSCCIKYFIFGFNVIFWFLGITFLGIGLWAWNEKGVLSNISSITDLGGFDPVWLFLVVGGVMFILGFAGCIGALRENTFLLKFFSVFLGIIFFLELTAGVLAFVFKDWIKDQLYFFINNNIRAYRDDIDLQNLIDFTQEYWQCCGAFGADDWNLNIYFNCTDSNASRERCGVPFSCCTKDPAEDVINTQCGYDARQKPEVDQQIVIYTKGCVPQFEKWLQDNLTIVAGIFIGIALLQIFGICLAQNLVSDIEAVRASW
